Reference: PMC10329682
These are yes or no findings as the source states them, for the method shown. In cells and extracts the contact can be indirect. A yes stands for co-enrichment or nearness to the bait. Other partners may have been found.

Chains of the proteins cited; added tags and fusions are not shown. Lines headed by an entry give the natural chain unless they say otherwise; changes in a name come on top.
UniProt Q16763: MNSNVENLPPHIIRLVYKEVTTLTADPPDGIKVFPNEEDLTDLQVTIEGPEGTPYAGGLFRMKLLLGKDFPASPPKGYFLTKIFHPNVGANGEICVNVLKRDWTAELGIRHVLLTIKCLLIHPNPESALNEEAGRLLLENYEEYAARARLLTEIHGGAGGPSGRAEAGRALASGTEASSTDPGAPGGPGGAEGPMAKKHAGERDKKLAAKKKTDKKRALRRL
UniProt P19474: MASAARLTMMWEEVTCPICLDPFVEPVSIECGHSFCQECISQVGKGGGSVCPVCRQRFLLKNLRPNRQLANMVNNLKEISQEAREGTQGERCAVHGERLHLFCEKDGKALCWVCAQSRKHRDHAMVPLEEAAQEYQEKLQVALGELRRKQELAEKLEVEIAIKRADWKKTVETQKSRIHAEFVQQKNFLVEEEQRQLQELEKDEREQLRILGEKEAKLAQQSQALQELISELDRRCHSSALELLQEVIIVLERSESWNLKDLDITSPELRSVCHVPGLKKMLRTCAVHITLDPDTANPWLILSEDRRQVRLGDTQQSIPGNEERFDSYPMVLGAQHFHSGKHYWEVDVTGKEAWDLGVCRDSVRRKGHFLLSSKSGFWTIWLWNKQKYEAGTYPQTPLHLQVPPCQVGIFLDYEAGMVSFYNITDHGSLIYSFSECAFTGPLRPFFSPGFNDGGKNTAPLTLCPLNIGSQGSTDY

Biological target: Ubiquitin-conjugating enzyme E2S (human (endogenous in T24 and UM-UC-3)) (UniProt Q16763)
Assay: affinity purification with mass spectrometry; immunoprecipitation with a UBE2S antibody (2 ug, overnight at 4 C) from lysates of wild-type T24 and UM-UC-3 cells, Protein A/G magnetic beads 2 h at room temperature, mass spectrometry; a protein with >=2 unique peptides considered significant

| Molecule | binding |
| --- | --- |
| tripartite motif containing 21 (from UniProt P19474 1-475) (enzyme) | binds |
| lipoma preferred partner (protein, UniProt Q93052 1-612) MSHPSWLPPKSTGEPLGHVPARMETTHSFGNPSISVSTQQPPKKFAPVVAPKPKYNPYKQPGGEGDFLPPPPPPLDDSSALPSISGNFPPPPPLDEEAFKVQGNPGGKTLEERRSSLDAEIDSLTSILADLECSSPYKPRPPQSSTGSTASPPVSTPVTGHKRMVIPNQPPLTATKKSTLKPQPAPQAGPIPVAPIGTLKPQPQPVPASYTTASTSSRPTFNVQVKSAQPSPHYMAAPSSGQIYGSGPQGYNTQPVPVSGQCPPPSTRGGMDYAYIPPPGLQPEPGYGYAPNQGRYYEGYYAAGPGYGGRNDSDPTYGQQGHPNTWKREPGYTPPGAGNQNPPGMYPVTGPKKTYITDPVSAPCAPPLQPKGGHSGQLGPSSVAPSFRPEDELEHLTKKMLYDMENPPADEYFGRCARCGENVVGEGTGCTAMDQVFHVDCFTCIICNNKLRGQPFYAVEKKAYCEPCYINTLEQCNVCSKPIMERILRATGKAYHPHCFTCVMCHRSLDGIPFTVDAGGLIHCIEDFHKKFAPRCSVCKEPIMPAPGQEETVRIVALDRDFHVHCYRCEDCGGLLSEGDNQGCYPLDGHILCKTCNSARIRVLTAKASTDL | binds |
